Laboratory results as given in PMC10553838, “Functional and structural insights into the multi-step activation and catalytic mechanism of bacterial ExoY nucleotidyl cyclase toxins bound to actin-profilin” (PLOS Pathogens, 2023).
Results are given in words; binding and its absence hold for the method and conditions named.

Target: Pa-ExoY (Exoenzyme Y of Pseudomonas aeruginosa), residues 20 to 378, wild type (Pseudomonas aeruginosa) (UniProt O85345)
Assay: SEC; both purified

Substance: Pa-ExoY (Exoenzyme Y of Pseudomonas aeruginosa), residues 20 to 378, wild type (from UniProt O85345 20-378)
- binding: no binding (tested: between 2 and 5 μM)
